PubChem BioAssay AID602196 – INSERM | 2012
Assay: 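Genes whose knock-down alters cisplatin killing of lung cancer cells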. Cells: human A549 lung cancer cells. Reagents: siRNA pair against human genes. Duration: 48 h transfection before cisplatin; time from cisplatin to read-out not stated. Treatment: cisplatin at a dose killing half of control-siRNA cells; exact dose and duration not given. Measured: 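Cisplatin cell death as a shift from the 50% death seen with control siRNA; siRNAs toxic or growth-blocking alone scored 0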. Direction: two-siRNA summed score (-2 to +2): higher = both siRNAs protect from cisplatin killing; -2 means both sensitise; mean protection from cisplatin (shift in death) and protection from cisplatin (shift in death), siRNA C: higher = protection from cisplatin killing. Hit rule: 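siRNAs harmful alone (LDH or WST-1) get 0; others get +1 for less and -1 for more cisplatin killing; genes are active when the two siRNAs give the same sign, summing to ±2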. Meaning of the calls: active = both siRNAs shift cisplatin killing the same way; inactive = no consistent shift, or siRNA harmful alone.
Here is an unselected part of about 23,000 deposited reagents. 455 of them (2%) were called active. 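Active includes both protection and sensitisation; some change values fall well beyond the stated -50 to +50 range.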 Not all columns of the deposit are shown. The record does not give: the amount of reagent.

| gene symbol | two-siRNA summed score (-2 to +2) | mean protection from cisplatin (shift in death) (%) | protection from cisplatin (shift in death), siRNA C (%) | Outcome |
| --- | --- | --- | --- | --- |
| TAF1 (TATA-box binding protein associated factor 1) | 0 | 5.1 | 14.2 | inactive |
| GREB1L (GREB1 like retinoic acid receptor coactivator) | 0 | -0.2 | -3.7 | inactive |
| LOC401026 | 0 | 9.3 | 12 | inactive |
| TCF21 (transcription factor 21) | 0 | 14 | 2.6 | inactive |
| ANKFY1 (ankyrin repeat and FYVE domain containing 1) | 1 | 9 | 4.9 | inactive |
| SYT5 (synaptotagmin 5) | 0 | 5.2 | 11.2 | inactive |
| LOC441459 | 1 | 13 | 12.5 | inactive |
| DDX3Y (DEAD-box helicase 3 Y-linked) | 0 | 7.4 | 6.4 | inactive |
| GPSM3 (G protein signaling modulator 3) | 0 | -0.4 | 9 | inactive |
| SMDT1 (single-pass membrane protein with aspartate rich tail 1) | 0 | 10.9 | 8.1 | inactive |
| TPM1 (tropomyosin 1) | 0 | -7.1 | -6.6 | inactive |
| GPX2 (glutathione peroxidase 2) | 0 | -8.7 | -6.6 | inactive |
| KLHL5 (kelch like family member 5) | 0 | 2.7 | 4.9 | inactive |
| LOC400470 | 0 | 10.9 | 11.3 | inactive |
| PTOV1 (PTOV1 extended AT-hook containing adaptor protein) | 0 | -9.3 | -2.5 | inactive |
| CPNE7 (copine 7) | 0 | 6.3 | 8.1 | inactive |
| EXTL3 (exostosin like glycosyltransferase 3) | 0 | -5.5 | -17.1 | inactive |
| KRTAP22-1 (keratin associated protein 22-1) | 0 | 2 | -2.2 | inactive |
| GALNT14 (polypeptide N-acetylgalactosaminyltransferase 14) | 0 | -0.6 | 3.1 | inactive |
| TRIP13 (thyroid hormone receptor interactor 13) | 0 | -1.5 | -11.2 | inactive |
| SLC34A2 | 0 | 5.6 | 4.5 | inactive |
| CLVS1 (clavesin 1) | 0 | -0.1 | 9 | inactive |
| ATP6V0A1 (ATPase H+ transporting V0 subunit a1) | 0 | -9.9 | 0.3 | inactive |
| LINC02538 (long independently transcribed non-coding RNA 2538) | 0 | 6.9 | 13.9 | inactive |
| ZNF625 (zinc finger protein 625) | 0 | -0.7 | -8 | inactive |
| MCEE (methylmalonyl-CoA epimerase) | 0 | 1.8 | -0.1 | inactive |
| CPXCR1 (CPX chromosome region candidate 1) | 0 | 9.9 | 10.8 | inactive |
| BCL11A (BCL11 transcription factor A) | 0 | -1.4 | -8.8 | inactive |
| LOC285770 | 0 | 3.2 | 7 | inactive |
| IRAG1 (inositol 1,4,5-triphosphate receptor associated 1) | 0 | -2.6 | -1.7 | inactive |
| MYL9 (myosin light chain 9) | -1 | -10.9 | -14.9 | inactive |
| FRMD8 (FERM domain containing 8) | 0 | -9.4 | -14.1 | inactive |
| KIAA1971 | 0 | 8.5 | 15.3 | inactive |
| FBXO42 (F-box protein 42) | 1 | 22 | 55.4 | inactive |
| RPL12 (ribosomal protein L12) | 0 | 31.7 | 16.4 | inactive |
| MTUS1 (microtubule associated scaffold protein 1) | 0 | 2.9 | 15.6 | inactive |
| ATP6V1D (ATPase H+ transporting V1 subunit D) | -1 | -4 | 2.2 | inactive |
| RHNO1 (RAD9-HUS1-RAD1 interacting nuclear orphan 1) | 0 | 1.3 | 7.9 | inactive |
| CCIN (calicin) | 1 | 12.7 | 9.9 | inactive |

Reprinted from the listing (2 entries):
| gene symbol | two-siRNA summed score (-2 to +2) | mean protection from cisplatin (shift in death) (%) | protection from cisplatin (shift in death), siRNA C (%) | Outcome |
| --- | --- | --- | --- | --- |
| GREB1L (GREB1 like retinoic acid receptor coactivator) | 0 | -0.2 | -3.7 | inactive |
| LOC401026 | 0 | 9.3 | 12 | inactive |
